Among the data in paper PMC4157579, “Lysine Acetylation Controls Local Protein Conformation by Influencing Proline Isomerization” (Molecular Cell, 2014) are binding values, retold here.

Amino acid sequences for entries named in this document (tags omitted). Residues count along the entry.
UniProt P35177, residues 363-619: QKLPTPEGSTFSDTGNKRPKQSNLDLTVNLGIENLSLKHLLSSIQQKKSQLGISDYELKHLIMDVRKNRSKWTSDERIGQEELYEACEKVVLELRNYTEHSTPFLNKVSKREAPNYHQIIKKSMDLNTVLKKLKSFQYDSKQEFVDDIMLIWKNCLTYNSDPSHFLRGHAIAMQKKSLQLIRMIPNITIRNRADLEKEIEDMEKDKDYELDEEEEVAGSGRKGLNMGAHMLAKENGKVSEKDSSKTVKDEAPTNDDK

No constants are given. Whether binding was seen depends on the method and setting.

In this assay the target is Spt7 bromodomain (residues 363–619) (UniProt P35177). As to the kind of experiment: SPR; peptides binding to immobilized Spt7 bromodomain; Biacore T100 and T200, 25°C; 1:1 binding model; relative binding; both purified. Background: Surface plasmon resonance follows binding to a sensor surface in real time, without labels.

On to “K14R-K18ac H3 peptide (11–26) (from UniProt P61830 12-27)”, for which the binding entry is “no binding”.
